From paper doi:10.1101/2025.05.01.651783 come the findings set out here.

Protein sequences, listed by entry. Tags and fused reporters are not part of them.
UniProt Q04206: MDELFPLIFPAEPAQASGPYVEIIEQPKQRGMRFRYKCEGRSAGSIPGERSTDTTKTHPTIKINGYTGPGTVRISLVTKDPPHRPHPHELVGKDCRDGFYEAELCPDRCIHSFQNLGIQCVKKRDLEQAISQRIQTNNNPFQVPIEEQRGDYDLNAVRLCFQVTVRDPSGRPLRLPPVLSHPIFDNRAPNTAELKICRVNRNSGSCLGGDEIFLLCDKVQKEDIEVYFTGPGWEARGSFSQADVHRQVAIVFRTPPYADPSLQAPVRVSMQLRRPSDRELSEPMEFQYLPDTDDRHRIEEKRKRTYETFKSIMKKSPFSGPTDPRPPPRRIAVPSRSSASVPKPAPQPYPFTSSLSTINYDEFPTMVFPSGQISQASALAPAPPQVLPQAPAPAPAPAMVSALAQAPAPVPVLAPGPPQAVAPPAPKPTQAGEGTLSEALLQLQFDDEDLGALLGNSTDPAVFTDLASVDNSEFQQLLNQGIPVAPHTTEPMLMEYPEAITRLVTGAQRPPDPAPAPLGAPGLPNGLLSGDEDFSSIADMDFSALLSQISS

The target of experiment [1] is Argonaute 1 (AGO1) (human (endogenous in HAECs and HUVECs)) (UniProt Q9UL18). The experiment can be described thus: proximity ligation.
Experiment [2] shares this target. The experiment can be described thus: co-IP.

No constants are given. Whether binding was seen depends on the method and setting. Binding seen in cells or lysates may run through a third protein. Some entries that bind do so weakly or less than the wild type.

Consider “NF-κB p65 (RELA) (from UniProt Q04206 1-551)”, for which the binding entry in experiment [1] and in experiment [2] was “binds” each time.
